Structures can show the parent of a compound that is named as a salt. This is one part of the list. This data set is noisy: repeats of one test often differ as much as different tests do.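 The human kidney-derived cells carry a stably integrated construct of eight TEAD-binding elements driving luciferase, read by luminescence in a drug-repurposing library screen. A compound counts as a hit when its signal is more than five robust Z scores above the plate mean.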
System: HEK293A TEAD-LUC reporter
Assay: TEAD-luciferase reporter activity (YAP activation), robust Z score vs plate; higher = stronger YAP/TEAD activation
Details: 24 h

Compound | TEAD-luciferase reporter activity (compound concentration: 200 nM) | TEAD-luciferase reporter activity (compound concentration: 2 uM) | TEAD-luciferase reporter activity (compound concentration: 10 uM)
CC(C)NC(=O)C[C@@H]1CCCN(C(=O)c2ccc(N3CCCC3)cc2Cl)c2ccccc21 | inactive: 0.546 | inactive: 1.35 | inactive: 0.148
COc1ccc(-c2n/c(=N/c3ccccc3)sn2-c2ccccc2)cc1 | inactive: -1.63 | inactive: 1.7 | inactive: 1.3
CCCCS(N)(=O)=CCC(N)C(=O)O (configuration not stated) [Buthionine sulphoximine] | inactive: -1.13 |  | inactive: 0.211
O=Cc1ccc(CO)o1 | inactive: -0.154 | inactive: 0.794 | inactive: -0.047
COc1cccc(CCc2ccccc2OCC(CN(C)C)OC(=O)CCC(=O)O)c1 (configuration not stated) [sarpogrelate hydrochloride, KunWha Pharmaceutical] | inactive: -0.93 | inactive: -0.0126 | inactive: 3.13
COC[C@H](C)Oc1cc(Oc2cnc(C(=O)N3CCC3)cn2)cc(C(=O)Nc2ccc(C)nc2)c1 | inactive: -1.06 | inactive: -1.6 | inactive: 0.658
C#CCOc1ccc(Nc2nc(Nc3ccc(C)c(S(N)(=O)=O)c3)ncc2F)cc1 | inactive: -0.195 | inactive: -1.69 | inactive: 0.791
CCCCCCCCCCCCCCCCCC(=O)OC[C@H](COP(=O)(O)OCC[N+](C)(C)C)OC(=O)CCCCCCCCCCCCCCCCC.COc1cc([C@H]2Oc3cc([C@H]4Oc5cc(O)cc(O)c5C(=O)[C@@H]4O)ccc3O[C@@H]2CO)ccc1O [Silybin phosphatidylcholine complex] | inactive: -0.564 | inactive: -0.106 | inactive: 1.29
O=C(Cc1ccc(-c2ccc(OCCN3CCOCC3)cc2)cn1)NCc1ccccc1 | inactive: 1.32 | inactive: 1.98 | active: 5.42
CCOC(=O)N1c2ccc(C(F)(F)F)cc2[C@@H](N(Cc2cc(C(F)(F)F)cc(C(F)(F)F)c2)C(=O)OC)C[C@H]1CC [Torcetrapib] |  | inactive: 0.364 | 
CCOC(=O)N1c2ccc(C(F)(F)F)cc2[C@@H](N(Cc2cc(C(F)(F)F)cc(C(F)(F)F)c2)C(=O)OC)C[C@H]1CC | inactive: -0.68 |  | inactive: -1.02
COc1cc(CCc2ccc(C3=Cc4ccccc4C4=NCCN34)cc2)cc(OC)c1OC | inactive: -1.01 | inactive: -1.09 | active: 5.92
COc1ccc(OC2CN(CCC(C)C)C2)cc1 | inactive: -1.44 |  | inactive: 0.0219
CCN(CC)CCNC(=O)c1ccc(NS(C)(=O)=O)cc1 [Sematilide monohydrochloride monohydrate] | inactive: -2.37 |  | inactive: 4.91
CCN(CC)CCNC(=O)c1ccc(NS(C)(=O)=O)cc1 [Sematilide hydrochloride] |  | inactive: -0.649 | 
CCOc1ccc(-n2c([C@@H](C)N(Cc3cccnc3)C(=O)Cc3ccc(OC(F)(F)F)cc3)nc3ncccc3c2=O)cc1 | inactive: -1.55 | inactive: 0.703 | inactive: 1.44
COc1cc(N)c(Cl)cc1C(=O)NC1C[C@H]2CCC[C@@H](C1)N2Cc1ccc(F)cc1 (some centres not stated) | inactive: -1.18 | inactive: -0.0438 | inactive: -0.275

Compound | TEAD-luciferase reporter activity (compound concentration: 200 nM) | TEAD-luciferase reporter activity (compound concentration: 2 uM) | TEAD-luciferase reporter activity (compound concentration: 10 uM)
CCO[C@@H](Cc1ccc(OCCn2c(C)ccc2-c2ccc(SC)cc2)cc1)C(=O)O |  | inactive: 0.173 | 
CCO[C@@H](Cc1ccc(OCCn2c(C)ccc2-c2ccc(SC)cc2)cc1)C(=O)O [Saroglitazar] | inactive: -0.21 | inactive: 2.62 | inactive: 4
c1ccc(C23OCC(Cn4c2nc2ccccc24)O3)cc1 (configuration not stated) [oxapadol] | inactive: 0.078 | inactive: -0.478 | inactive: 0.123
CC1(c2ccccc2)Cc2cc(OCC(=O)O)c(Cl)c(Cl)c2C1=O (configuration not stated) | inactive: -1.4 | inactive: -1.24 | inactive: -0.375
CCc1occc(=O)c1[O][V](=[O])[O]c1c(CC)occc1=O | inactive: -0.632 | inactive: -0.289 | inactive: 3.97
CSCC(CC(=O)c1ccc(C)cc1)C(=O)O (configuration not stated) [S-Methyl-KE-298] | inactive: -1.72 | inactive: -0.782 | inactive: -1.23
Cn1c(-c2ccccn2)c(C2CCCC2)c2ccc(C(=O)NC3(C(=O)Nc4ccc(/C=C/C(=O)O)cc4)CCC3)cc21 | inactive: -0.304 | inactive: -0.681 | inactive: 0.982
CCOc1nc(N)nc2c1ncn2[C@@H]1O[C@@H]2COP(=O)(OC(C)C)O[C@H]2[C@@]1(C)F (some centres not stated) | inactive: -1.95 | inactive: -0.81 | inactive: -0.956
Cc1cc(/C=C/c2cccs2)cc(C)c1OC(=O)CCC(=O)O | inactive: 0.821 | inactive: -1.07 | inactive: 1.92
S=c1[nH]cnc2nc[nH]c12 [Mercaptopurine] | inactive: -1.32 | inactive: 2.37 | inactive: -1.58
S=c1[nH]cnc2nc[nH]c12 |  | inactive: 0.339 | 
O=C(c1ccc(-c2ccc(Nc3nc4ccc(F)cc4s3)c(F)c2)cc1)[C@H]1CCC[C@H]1C(=O)O | inactive: -0.611 | inactive: 0.0846 | inactive: 1.65
O=C1CCC(C(=O)O)N1 (configuration not stated) [Pyroglutamic acid] | inactive: -1.82 | inactive: -1.35 | inactive: -0.68
CCC(C)(C)C(=O)C(=O)N1CCCCC1C(=O)OC(CCc1ccc(OC)c(OC)c1)c1cccc(OCC(=O)Nc2c(/N=N/c3ccc(-c4ccc(/N=N/c5cc(S(=O)(=O)O)c6ccccc6c5N)cc4)cc3)cc(S(=O)(=O)O)c3ccccc23)c1 (configuration not stated) | inactive: 1.25 | inactive: -1.37 | inactive: -1.6
C=C[C@@H]1C[C@]1(NC(=O)[C@@H]1C[C@@H](OC(=O)N2Cc3cccc(F)c3C2)CN1C(=O)[C@@H](NC(=O)OC(C)(C)C)C(C)(C)C)C(=O)NS(=O)(=O)C1CC1 | inactive: -2.75 | inactive: -0.143 | inactive: 0.341
Cc1cc(NC2CCCCC2)nc(-n2nc(C)cc2C)n1 | inactive: -0.375 | inactive: -1.75 | inactive: 1.65

As a working copy, part of the list above:
Compound | TEAD-luciferase reporter activity (compound concentration: 200 nM) | TEAD-luciferase reporter activity (compound concentration: 2 uM) | TEAD-luciferase reporter activity (compound concentration: 10 uM)
CCO[C@@H](Cc1ccc(OCCn2c(C)ccc2-c2ccc(SC)cc2)cc1)C(=O)O [Saroglitazar] | inactive: -0.21 | inactive: 2.62 | inactive: 4
c1ccc(C23OCC(Cn4c2nc2ccccc24)O3)cc1 (configuration not stated) [oxapadol] | inactive: 0.078 | inactive: -0.478 | inactive: 0.123
CC1(c2ccccc2)Cc2cc(OCC(=O)O)c(Cl)c(Cl)c2C1=O (configuration not stated) | inactive: -1.4 | inactive: -1.24 | inactive: -0.375
CCc1occc(=O)c1[O][V](=[O])[O]c1c(CC)occc1=O | inactive: -0.632 | inactive: -0.289 | inactive: 3.97
CSCC(CC(=O)c1ccc(C)cc1)C(=O)O (configuration not stated) [S-Methyl-KE-298] | inactive: -1.72 | inactive: -0.782 | inactive: -1.23
Cn1c(-c2ccccn2)c(C2CCCC2)c2ccc(C(=O)NC3(C(=O)Nc4ccc(/C=C/C(=O)O)cc4)CCC3)cc21 | inactive: -0.304 | inactive: -0.681 | inactive: 0.982

— the supplement of paper PMC10735217
